This note sets out measurements from PMC12092002.

Experiment [1] concerns the target T1, NRA-2::VN173 (C. elegans) (UniProt A5JYX8).
T1 sequence: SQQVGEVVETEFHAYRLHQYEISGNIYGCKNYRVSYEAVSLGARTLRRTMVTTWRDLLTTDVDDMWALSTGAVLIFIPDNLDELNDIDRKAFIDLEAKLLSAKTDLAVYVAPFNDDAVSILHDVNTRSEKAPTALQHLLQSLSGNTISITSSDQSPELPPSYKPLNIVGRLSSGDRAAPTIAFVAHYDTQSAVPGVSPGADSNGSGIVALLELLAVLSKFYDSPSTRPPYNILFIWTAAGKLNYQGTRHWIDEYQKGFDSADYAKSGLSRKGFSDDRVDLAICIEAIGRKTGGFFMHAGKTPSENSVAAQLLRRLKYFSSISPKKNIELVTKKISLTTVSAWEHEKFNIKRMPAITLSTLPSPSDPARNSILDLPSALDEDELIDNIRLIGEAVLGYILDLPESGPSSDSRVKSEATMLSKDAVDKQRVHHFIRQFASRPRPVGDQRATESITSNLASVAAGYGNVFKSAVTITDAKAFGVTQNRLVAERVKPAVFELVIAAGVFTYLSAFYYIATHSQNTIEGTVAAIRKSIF
In words: split reporter; BiFC in vivo in C. elegans: split mVenus (VN173 and VC155); FLWR-1 fusion from its own promoter, partner fusion in body wall muscle cells; fluorescence imaged with x100 objective, 460 nm excitation, 500 ms exposure.

For experiment [2], the target named is T2, UNC-1::VN173 (C. elegans) (UniProt Q21190).
T2 sequence: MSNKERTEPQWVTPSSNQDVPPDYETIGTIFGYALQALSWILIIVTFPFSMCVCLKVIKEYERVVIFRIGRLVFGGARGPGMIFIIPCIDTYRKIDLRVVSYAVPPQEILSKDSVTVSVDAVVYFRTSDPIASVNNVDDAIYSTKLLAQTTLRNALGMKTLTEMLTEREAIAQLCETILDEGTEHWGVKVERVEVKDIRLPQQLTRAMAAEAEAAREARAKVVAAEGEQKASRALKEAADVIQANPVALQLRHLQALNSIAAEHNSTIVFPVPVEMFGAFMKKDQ
The description is as above.

No constants are given. Whether binding was seen depends on the method and setting. In cells and extracts the contact can be indirect. Some binding calls cover weakened binding; strength is not graded here.

B1: FLWR-1::VC155 (protein, UniProt Q93533 1-166)
chain: MGAAASGVSTQMQAEHDPNAAFPWWVRFLAKGVAILGGFLSLFFGVLGLITLSATCMVAILLQMTAGALVIALEAPFCCQFVDFIEKIARFSESRALWHKAAIYGAMGLIPIFLCIELNTILGSGTIFASGVIYGFMALGKKADRSNMMAAGDPAWSPQVNQSNIP
Consider B1, for which the binding result in experiment [1] is listed as “binds”; in experiment [2], “no binding”.
